The results in this text go back to patent US20060276626 (published 2006).

This data set can be described thus: general procedure: hybrid (solid and solution phase) peptide synthesis; 2-Cl-Trt-Cl resin; TBTU/HOBt with diisopropylethylamine. The settings on record: whole synthesis; for final purity (method not given): HPLC.

“And” between values parts separate entries of the source, which are not always exact repeats. Identical values can stand only once. A value given as a limit tells only on which side of the number the result lay.

Take “Mpa-Har-Gly-Asp-Trp-Pro-Cys-NH2, (SEQ. ID. NO. 7) cyclic (1-7) disulfide”: the “final purity (method not given)” value reads like this: (acetate, run 1) >95% and >99.0%; (acetate, run 2) greater than 99.0%; (trifluoroacetate) greater than 98.5%. Consider “pGlu-His-Trp-Ser-Tyr-D-Ser(tBu)-Leu-Arg-Pro-HNEt”, for which the “final HPLC purity” value (acetate) is on record as greater than 99.0%. Same read-out and setting: as for “pGlu-His-Trp-Ser-Tyr-D-Ser(tBu)-Leu-Arg-Pro-HNNHCONH2”, the figure is greater than 99.0%. Regarding “pGlu-His-Trp-Ser-Tyr-D-Trp-Leu-Arg-Pro-Gly-NH2”, the “final HPLC purity” value (acetate) is recorded as greater than 99.0% and the “final HPLC purity” value (pamoate) is listed as greater than 99.0%.
